{
  "sequences": {"note": "Amino acid sequences for entries named in this document (tags omitted). A change or cut given only in a name is not applied to a line headed by its entry.", "UniProt Q8BG05": "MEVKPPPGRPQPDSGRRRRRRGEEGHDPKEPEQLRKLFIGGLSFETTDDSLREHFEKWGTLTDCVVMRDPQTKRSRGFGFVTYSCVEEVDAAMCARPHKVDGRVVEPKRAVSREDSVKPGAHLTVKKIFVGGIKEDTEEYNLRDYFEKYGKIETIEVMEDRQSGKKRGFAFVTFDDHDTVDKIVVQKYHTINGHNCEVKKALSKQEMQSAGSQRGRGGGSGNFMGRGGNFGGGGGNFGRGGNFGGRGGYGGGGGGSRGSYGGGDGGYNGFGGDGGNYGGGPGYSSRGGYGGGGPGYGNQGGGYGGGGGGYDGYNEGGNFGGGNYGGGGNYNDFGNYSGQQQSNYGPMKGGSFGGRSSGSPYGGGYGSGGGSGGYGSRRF"},
  "source": "paper PMC2945768",
  "key": {"[1]": {"target": "hnRNP A3 (Mus musculus (C57BL/6J, 6 months, liver)) (UniProt Q8BG05)", "assay": "EMSA, UV cross-linking, 2DE, MALDI-TOF/MS", "settings": "bound form unphosphorylated at Ser359, competed by cold N2 and cold N1; 10 mM Tris-HCl (pH not stated), 50 mM NaCl, 5% glycerol, 1 mM DTT, 1 mM EDTA, 0.2 ug yeast RNA, 15 U RNase inhibitor; 2.5-10 ug mouse liver nuclear extract, 50 min on ice; protein in an extract; label: 32P-UTP internal (unlabelled as competitor)"}, "[2]": {"target": "hnRNP A3 (Mus musculus (C57BL/6J, 6 months, liver)) (UniProt Q8BG05)", "assay": "competition with a labelled probe", "settings": "cold N2 against 32P-N1, liver nuclear extract; 10 mM Tris-HCl (pH not stated), 50 mM NaCl, 5% glycerol, 1 mM DTT, 1 mM EDTA, 0.2 ug yeast RNA, 15 U RNase inhibitor; 2.5-10 ug mouse liver nuclear extract, 50 min on ice; protein in an extract; label: 32P-UTP internal (unlabelled as competitor)"}},
  "note": "The exact form of at least one protein or probe is not confirmed. Results from cells or extracts need not show a direct contact. For some assays here: At least one verdict was read from the data and is not stated in words by the source.",
  "data": [
    {"sequence": "GAAAUCAUUAAUUUAAUCAUAUUGGUAAUAUAUAUAUAUUAUAUCUCUAA [mFIX-AIE RNA]", "values": [
      {"measurement": "binding result", "setting": "[1]", "value": "binds"},
      {"measurement": "binding result", "setting": "[2]", "value": "binds"}
    ]}
  ]
}
